Data source: PubChem BioAssay AID743121 (NCATS, 2013)

- Screen: 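Knock-downs that sensitise breast cancer cells to camptothecin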 (primary screen)
- Cell system: MDA-MB-231 cells, a human breast cancer line
- Knock-down reagent: single siRNA against human genes, 20 nM siRNA (0.8 pmol per well)
- Duration: 120 h (drug added 48 h after transfection, read 72 h later)
- Conditions: camptothecin 20 nM (about EC30) for 72 h; vehicle 0.1% DMSO in parallel plates
- Read-out: 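CellTiter-Glo ATP signal, scaled to control siRNA as percent viability; sensitisation given as log2 of untreated divided by camptothecin-treated viability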
- Scale: log2 vehicle/camptothecin viability: higher = stronger sensitisation to camptothecin
- Active means: 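Each gene scored by redundant siRNA activity (RSA) over its individual siRNA ratios; a gene is called active at p < 0.001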
In all, the deposit lists about 26,000 reagents; this is a part drawn at random. Of all reagents, 167 (0.63%) got an active call. 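Calls are per gene from RSA p-values that are not deposited; an individual active-marked siRNA can sensitise only weakly.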 The numbers tell different reagents against one gene apart. Not all columns of the deposit are shown.

gene | reagent no. | log2 vehicle/camptothecin viability | Call
TNNT2 | 1 | -0.24 | inactive
TNNT2 | 2 | -0.249 | inactive
TNNT2 | 3 | -0.132 | inactive
SIRT2 | 1 | -0.112 | inactive
SIRT2 | 2 | -0.212 | inactive
SIRT2 | 3 | -0.526 | inactive
SIRT2 | 4 | -0.254 | inactive
IL1R2 | 1 | 0.224 | inactive
IL1R2 | 2 | -0.75 | inactive
IL1R2 | 3 | 0.172 | inactive
IL1R2 | 4 | -0.105 | inactive
PTPN14 | 1 | 0.0176 | inactive
PTPN14 | 2 | -0.338 | inactive
PTPN14 | 3 | 0.114 | inactive
PTPN14 | 4 | -0.256 | inactive
AKAP7 | 1 | -0.0866 | inactive
AKAP7 | 2 | -0.0904 | inactive
AKAP7 | 3 | 1.02 | inactive
AKAP7 | 4 | -0.0828 | inactive
CALCB | 1 | -0.192 | inactive
CALCB | 2 | -0.309 | inactive
CALCB | 3 | -0.316 | inactive
CALCB | 4 | -0.251 | inactive
ACP6 | 1 | -0.135 | inactive
ACP6 | 2 | -0.142 | inactive
ACP6 | 3 | -0.465 | inactive
ACP6 | 4 | 0.0333 | inactive
C5AR1 | 1 | 0.00714 | inactive
C5AR1 | 2 | 0.247 | inactive
C5AR1 | 3 | -0.122 | inactive
C5AR1 | 4 | -0.277 | inactive
AMZ2 | 1 | -0.144 | inactive
AMZ2 | 2 | -0.0978 | inactive
AMZ2 | 3 | -0.278 | inactive
AMZ2 | 4 | -0.375 | inactive
PPP1R8 | 1 | -0.292 | inactive
PPP1R8 | 2 | -0.339 | inactive
PPP1R8 | 3 | -0.0686 | inactive
PPP1R8 | 4 | -0.0849 | inactive
UBLCP1 | 1 | -0.45 | inactive
UBLCP1 | 2 | 0.0468 | inactive
UBLCP1 | 3 | 0.0392 | inactive
UBLCP1 | 4 | 0.19 | inactive
PDE6G | 1 | 0.11 | inactive
PDE6G | 2 | -0.0192 | inactive
PDE6G | 3 | -0.0914 | inactive
GPSM2 | 1 | 0.0925 | inactive
GPSM2 | 2 | 0.203 | inactive
GPSM2 | 3 | -0.285 | inactive
PPP1R12B | 1 | -0.569 | inactive
PPP1R12B | 2 | -0.467 | inactive
PPP1R12B | 3 | -0.197 | inactive
PPP1R12B | 4 | 0.514 | inactive
NEIL3 | 1 | 0.138 | inactive
NEIL3 | 2 | -0.086 | inactive
NEIL3 | 3 | 0.175 | inactive
NEIL3 | 4 | -0.425 | inactive
TRPC1 | 1 | -0.057 | inactive
TRPC1 | 2 | -0.522 | inactive
TRPC1 | 3 | -0.174 | inactive
TRPC1 | 4 | -0.17 | inactive
ATP5F1A | 1 | -0.186 | inactive
ATP5F1A | 2 | -0.194 | inactive
ATP5F1A | 3 | -0.121 | inactive
ATP5F1A | 4 | -0.12 | inactive
FCMR | 1 | -0.332 | inactive
FCMR | 2 | -0.115 | inactive
FCMR | 3 | -0.281 | inactive
FCMR | 4 | -0.818 | inactive

Targets above whose target name starts with T or t:
gene | reagent no. | log2 vehicle/camptothecin viability | Call
TNNT2 | 1 | -0.24 | inactive
TNNT2 | 2 | -0.249 | inactive
TNNT2 | 3 | -0.132 | inactive
TRPC1 | 1 | -0.057 | inactive
TRPC1 | 2 | -0.522 | inactive
TRPC1 | 3 | -0.174 | inactive
TRPC1 | 4 | -0.17 | inactive
